These results are taken from patent publication US6987089.

Amino acid sequences for entries named in this document (tags omitted). A change or cut given only in a name is not applied to a line headed by its entry.
UniProt P0A7C2: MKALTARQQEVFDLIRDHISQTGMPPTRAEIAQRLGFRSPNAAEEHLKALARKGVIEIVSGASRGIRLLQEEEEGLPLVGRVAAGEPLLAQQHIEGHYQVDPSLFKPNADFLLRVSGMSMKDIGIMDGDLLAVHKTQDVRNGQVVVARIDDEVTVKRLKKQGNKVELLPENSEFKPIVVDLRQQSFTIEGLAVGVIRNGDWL

These are yes or no findings as the source states them, for the method shown. For some assays here: Binding seen in cells or lysates may run through a third protein. Some binding calls cover weakened binding; strength is not graded here. For some assays here: Sequences can lack the tags named with a protein.

In test [1] the target is T1, GST-CIA-WT (GST-tagged full-length wild type mouse CIA) (mouse) (UniProt Q9D1C8).
T1 sequence: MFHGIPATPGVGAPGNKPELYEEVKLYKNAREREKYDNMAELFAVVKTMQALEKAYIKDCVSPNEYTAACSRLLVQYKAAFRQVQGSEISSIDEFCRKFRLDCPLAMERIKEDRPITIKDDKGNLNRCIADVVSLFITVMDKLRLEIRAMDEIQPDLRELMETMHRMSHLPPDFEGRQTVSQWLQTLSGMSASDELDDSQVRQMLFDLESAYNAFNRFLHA
Put plainly: pull-down binding assay of CAD and its deletion mutants with CIA, SDS-PAGE.

The target of test [2] is mouse CAD as yeast 2-hybrid bait (in the same manner as Example 1-1) (mouse) (UniProt P0A7C2+O54788). Put plainly: yeast 2-hybrid screen, mouse CAD as bait, adult mouse brain cDNA library.
The target in test [3] is full-length ASK1 fused to the LexA DNA binding domain of pLexA (yeast 2-hybrid bait) (UniProt P0A7C2). Put plainly: yeast 2-hybrid screen, full-length ASK1 as bait, mouse brain cDNA library.
Test [4] deals with ASK1-Flag (expressed from pcDNA3-ASK1-Flag in 293 cells, immunoprecipitated with anti-Flag) (UniProt Q99683). The test can be described thus: immunoprecipitation using anti-Flag antibody (figure legend).
The target in test [5] is ASK1 wild-type, full length (apoptosis signal-regulating kinase 1), in vitro translated and 35S-methionine-labelled (UniProt Q99683). The test can be described thus: GST pull-down on glutathione-agarose beads, SDS-PAGE.
The target in test [6] is T2, wild type CAD (CAD-WT) (1-345), caspase-activated deoxyribonuclease, 35S-labelled (mouse) (UniProt O54788).
T2 sequence (35S label, looked up): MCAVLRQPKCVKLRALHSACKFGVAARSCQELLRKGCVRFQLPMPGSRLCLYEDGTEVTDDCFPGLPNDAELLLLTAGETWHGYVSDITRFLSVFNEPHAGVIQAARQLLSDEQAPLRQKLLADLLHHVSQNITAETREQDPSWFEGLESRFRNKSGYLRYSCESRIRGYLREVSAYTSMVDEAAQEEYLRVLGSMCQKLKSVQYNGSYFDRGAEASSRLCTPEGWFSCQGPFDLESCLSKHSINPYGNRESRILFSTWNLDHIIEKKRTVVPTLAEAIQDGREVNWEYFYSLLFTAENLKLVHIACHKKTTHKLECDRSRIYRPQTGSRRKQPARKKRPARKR
Described as above.

Test [7] concerns the target T3, ASK1-NT (ASK1 from amino acid 1 to 656) (UniProt Q99683).
T3 sequence (35S-methionine label, looked up): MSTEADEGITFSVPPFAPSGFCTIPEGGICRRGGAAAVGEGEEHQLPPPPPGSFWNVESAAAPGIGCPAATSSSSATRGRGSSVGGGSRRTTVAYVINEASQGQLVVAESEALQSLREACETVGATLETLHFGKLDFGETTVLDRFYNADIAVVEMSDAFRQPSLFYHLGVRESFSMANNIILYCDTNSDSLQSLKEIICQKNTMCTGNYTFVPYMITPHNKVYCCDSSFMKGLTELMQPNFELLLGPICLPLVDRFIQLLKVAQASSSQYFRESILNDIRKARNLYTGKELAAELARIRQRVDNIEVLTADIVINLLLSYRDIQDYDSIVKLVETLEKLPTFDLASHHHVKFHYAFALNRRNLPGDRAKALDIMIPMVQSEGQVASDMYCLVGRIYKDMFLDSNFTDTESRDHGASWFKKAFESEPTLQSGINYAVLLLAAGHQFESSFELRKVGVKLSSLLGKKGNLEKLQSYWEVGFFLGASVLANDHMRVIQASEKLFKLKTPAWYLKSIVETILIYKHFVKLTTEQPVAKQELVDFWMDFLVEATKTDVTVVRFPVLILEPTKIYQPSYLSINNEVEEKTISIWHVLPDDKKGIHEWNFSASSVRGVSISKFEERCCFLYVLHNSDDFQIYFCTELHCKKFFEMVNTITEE
Put plainly: GST-CIA pull-down of 35S-labelled ASK1 mutants, SDS-PAGE.

B1: wild type CAD (CAD-WT) (1-345), caspase-activated deoxyribonuclease, 35S-labelled (enzyme, mouse, UniProt O54788 1-344, looked up)
chain: MCAVLRQPKCVKLRALHSACKFGVAARSCQELLRKGCVRFQLPMPGSRLCLYEDGTEVTDDCFPGLPNDAELLLLTAGETWHGYVSDITRFLSVFNEPHAGVIQAARQLLSDEQAPLRQKLLADLLHHVSQNITAETREQDPSWFEGLESRFRNKSGYLRYSCESRIRGYLREVSAYTSMVDEAAQEEYLRVLGSMCQKLKSVQYNGSYFDRGAEASSRLCTPEGWFSCQGPFDLESCLSKHSINPYGNRESRILFSTWNLDHIIEKKRTVVPTLAEAIQDGREVNWEYFYSLLFTAENLKLVHIACHKKTTHKLECDRSRIYRPQTGSRRKQPARKKRPARKR
modifications: 35S label
For the molecule B1, the binding entry in test [1] is listed as “binds”.

B2: mouse CIA cDNA clone from the mouse brain cDNA library in the pB42AD prey plasmid (yeast 2-hybrid) (protein, not shown: large carriers)
chain: MFHGIPATPGVGAPGNKPELYEEVKLYKNAREREKYDNMAELFAVVKTMQALEKAYIKDCVSPNEYTAACSRLLVQYKAAFRQVQGSEISSIDEFCRKFRLDCPLAMERIKEDRPITIKDDKGNLNRCIADVVSLFITVMDKLRLEIRAMDEIQPDLRELMETMHRMSHLPPDFEGRQTVSQWLQTLSGMSASDELDDSQVRQMLFDLESAYNAFNRFLHA
For B2, the binding entry in test [2] and in test [3] was “binds” each time.

B3: His-CIA recombinant protein (His6-tagged mouse CIA) (protein, not shown: small tags and cut ends)
chain: MFHGIPATPGVGAPGNKPELYEEVKLYKNAREREKYDNMAELFAVVKTMQALEKAYIKDCVSPNEYTAACSRLLVQYKAAFRQVQGSEISSIDEFCRKFRLDCPLAMERIKEDRPITIKDDKGNLNRCIADVVSLFITVMDKLRLEIRAMDEIQPDLRELMETMHRMSHLPPDFEGRQTVSQWLQTLSGMSASDELDDSQVRQMLFDLESAYNAFNRFLHA
On to B3, for which the binding result in test [4] was “binds”.

B4: GST-CIA-WT (GST-tagged full-length wild type mouse CIA) (protein, not shown: a dimerising Fc or GST)
chain: MFHGIPATPGVGAPGNKPELYEEVKLYKNAREREKYDNMAELFAVVKTMQALEKAYIKDCVSPNEYTAACSRLLVQYKAAFRQVQGSEISSIDEFCRKFRLDCPLAMERIKEDRPITIKDDKGNLNRCIADVVSLFITVMDKLRLEIRAMDEIQPDLRELMETMHRMSHLPPDFEGRQTVSQWLQTLSGMSASDELDDSQVRQMLFDLESAYNAFNRFLHA
Regarding B4, the binding result in test [5], in test [6] and in test [7] was “binds” in each case.

B5: GST-CIA-ΔN (CIA deficient in N-terminal amino acids 1 to 78) (protein, not shown: a dimerising Fc or GST; large carriers; small tags and cut ends)
chain: AAFRQVQGSEISSIDEFCRKFRLDCPLAMERIKEDRPITIKDDKGNLNRCIADVVSLFITVMDKLRLEIRAMDEIQPDLRELMETMHRMSHLPPDFEGRQTVSQWLQTLSGMSASDELDDSQVRQMLFDLESAYNAFNRFLHA
For the molecule B5, the binding entry in test [5] was “binds”.
